Drawing on paper PMC7819943, “Rice protein-binding microarrays: a tool to detect cis-acting elements near promoter regions in rice”, this text covers binding signal for 42 sequences.

Some of the results follow.

For the test, the target named is T1, OsSMF1 (Oryza sativa, UniProt Q6ZLB0 1-436).
T1 sequence: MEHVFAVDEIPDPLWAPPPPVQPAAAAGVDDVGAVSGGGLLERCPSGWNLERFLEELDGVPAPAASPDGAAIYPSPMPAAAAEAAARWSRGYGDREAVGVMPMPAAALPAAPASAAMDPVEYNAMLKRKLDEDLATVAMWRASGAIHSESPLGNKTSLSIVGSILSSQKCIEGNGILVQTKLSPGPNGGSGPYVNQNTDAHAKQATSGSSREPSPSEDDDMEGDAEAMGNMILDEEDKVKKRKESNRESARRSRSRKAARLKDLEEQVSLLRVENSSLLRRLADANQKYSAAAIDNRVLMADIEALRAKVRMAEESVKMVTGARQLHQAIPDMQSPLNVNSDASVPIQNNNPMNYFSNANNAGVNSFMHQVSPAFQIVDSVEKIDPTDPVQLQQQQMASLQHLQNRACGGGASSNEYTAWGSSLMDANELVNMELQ
Briefly: protein-binding microarray (RPBM); PBS, 2% BSA, 51.3 ng/ul salmon testes DNA, 50 uM zinc acetate, 200 nM TF, 25 C, 1 h; high values mean tight binding. Conditions: protein: recombinant; tags: N-terminal polyhistidine and DsRed monomer fusion (pET32a); chain copies: 2; label: CyDye5-dUTP incorporated in the synthesized complementary strand; 3' TTTTT single-stranded linker to array surface; dsDNA, one strand shown. The method in brief: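 Ni–NTA purification followed expression in E. coli BL21-CodonPlus of transcription factors fused N-terminally to a polyhistidine tag and DsRed. At 200 nM in PBS with 2% BSA, salmon testes DNA and 50 µM zinc acetate, the protein was incubated for 1 h at 25 °C with a custom Agilent array that had been primer-extended with Cy5-dUTP and blocked with 2% BSA. After washing, the array was read on an Axon 4000B scanner. The binding signal is per-feature fluorescence intensity in arbitrary units.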
With “CGGCACCACCAGTTGTCCGGCATGCGATGTGGTACCGAGACGGAGTCACCTAGTGCAG”, the binding signal is 49300 fluorescence intensity (a.u.).

In the case of “AACCAGAATTTCCCAGGAGGAACACGCAGATTAGCAAAGGCGGAGTCACCTAGTGCAG”, the binding signal was 3270 fluorescence intensity (a.u.).

As to “CTAGCGACGAAACATTTCAACACGTCAACAAATGGTCGGGCGGAGTCACCTAGTGCAG”, the binding signal was 3310 fluorescence intensity (a.u.).

Consider “CGGCTTACTGTGTGTCCGTGGTGTCATCGTTGCTGGTCGCCGGAGTCACCTAGTGCAG”, for which the binding signal is 4740 fluorescence intensity (a.u.).

With “TCCTAATGCGTCATATTTTCAACTAAATCGTACTCGTCGACGGAGTCACCTAGTGCAG”, the binding signal was 3960 fluorescence intensity (a.u.).

Regarding “GTCTTTCTTGTGCTAGCTCGAGGCACAACATCCCCACATGCGGAGTCACCTAGTGCAG”, the binding signal is 4240 fluorescence intensity (a.u.).

With “GTGTGACACGTCACTCTCGTTCCGGCTCGGCCAGTCGCCGCGGAGTCACCTAGTGCAG”, the binding signal is 19900 fluorescence intensity (a.u.).

Consider “GTTAACAACGAGATCTTATGCGTGACATGTGTGAAAATTTCGGAGTCACCTAGTGCAG”, for which the binding signal is 3690 fluorescence intensity (a.u.).

Consider “GGTTTGTCTCCAAGGCCAAATCTCCGACCCAGGCATCATACGGAGTCACCTAGTGCAG”, for which the binding signal is 3880 fluorescence intensity (a.u.).

As for “GTGGCCTTGAACCGTCCATAGCGCGATCTGCGGTCCAGGACGGAGTCACCTAGTGCAG”, the binding signal is 3640 fluorescence intensity (a.u.).

On to “TAAAATTACGAGTTGTCAGTGCTGTGCCTATATGTGCACGCGGAGTCACCTAGTGCAG”, for which the binding signal is 3650 fluorescence intensity (a.u.).

With “ATACTAGAGCTACGCGTAGAGGCGGGAAGAGACGAGGGCGCGGAGTCACCTAGTGCAG”, the binding signal is 3180 fluorescence intensity (a.u.).

As for “CTCTCTCCCTCCTCCTCCAACTCCACATCGATCAGCAGCACGGAGTCACCTAGTGCAG”, the binding signal is 3330 fluorescence intensity (a.u.).

“CAGAGCAGGGGAGGGGAGGGGAGGGGATCCTGGTGAGCCTCGGAGTCACCTAGTGCAG”: the binding signal is 6310 fluorescence intensity (a.u.).

For “GCAATACGGCCTGAAATACCACTTTTACAACTCCCTTCACCGGAGTCACCTAGTGCAG”, the binding signal is 5340 fluorescence intensity (a.u.).

Take “AACCTATGGCGAAATTTTGCGTCATGTCTCGCTCAAATGCCGGAGTCACCTAGTGCAG”: the binding signal was 3210 fluorescence intensity (a.u.).

As to “CGGAGTATACATACGTACACCGCTACATTTCTAGATTACACGGAGTCACCTAGTGCAG”, the binding signal is 20600 fluorescence intensity (a.u.).

Take “CACCAGCGGATGAGCGCCACGTGTCCGCTACAGGCATGGGCGGAGTCACCTAGTGCAG”: the binding signal is 18100 fluorescence intensity (a.u.).

For the sequence “GCTTTCTTGGCTAAAGATGACACGCCTTTTATGCTAGAGGCGGAGTCACCTAGTGCAG”, the binding signal is 4690 fluorescence intensity (a.u.).

As for “GCAAAGATAGACCCAGGGGTTCCGGGTGTGCACCGGCATACGGAGTCACCTAGTGCAG”, the binding signal was 3220 fluorescence intensity (a.u.).

“GACACGGAAAAGTGGCGGACCAGTAACGTATATACGCCCACGGAGTCACCTAGTGCAG”: the binding signal is 21400 fluorescence intensity (a.u.).

“CTATAGCATCACGAGCCCCAGTCTATGGCACGTGGTCCCGCGGAGTCACCTAGTGCAG”: the binding signal was 5050 fluorescence intensity (a.u.).

For “CCCCTCCGCGGCTTCACCCCGTGTCCCCGTCACTCTCCGGCGGAGTCACCTAGTGCAG”, the binding signal is 5800 fluorescence intensity (a.u.).

On to “AGTGTTATCGTCAGTTCCAAAAGGTGCTTGACGTGGAAAGCGGAGTCACCTAGTGCAG”, for which the binding signal is 6850 fluorescence intensity (a.u.).

On to “ACCGGAGATCTAATCTCGGTCAGACCGATGGCAACCAGGTCGGAGTCACCTAGTGCAG”, for which the binding signal is 3520 fluorescence intensity (a.u.).

Regarding “TTAGGGGAGTGAATGACAAGTGGAGCCCACGTGGGCCTCACGGAGTCACCTAGTGCAG”, the binding signal is 6510 fluorescence intensity (a.u.).

As to “CCACTTAAATCAAAACCGGGGTCAAAACCACCGAAGGATCCGGAGTCACCTAGTGCAG”, the binding signal was 31500 fluorescence intensity (a.u.).

On to “CCTCTAGATCCTCTATGGTACTATATGTACAGTGCTGTTTCGGAGTCACCTAGTGCAG”, for which the binding signal was 42900 fluorescence intensity (a.u.).

Regarding “CTCTCCTGAGGTGCCACTTCACATTAATATGCTCCTTCTGCGGAGTCACCTAGTGCAG”, the binding signal is 3460 fluorescence intensity (a.u.).

On to “GAAACCATGTGTTAGTCAGTCACTCACCGTTGTTGCAGCACGGAGTCACCTAGTGCAG”, for which the binding signal is 9240 fluorescence intensity (a.u.).

As to “ATGTTATAATGCGTCAATTGATGGCAACTGTTTCCATTGTCGGAGTCACCTAGTGCAG”, the binding signal is 3240 fluorescence intensity (a.u.).

As to “TGTCTCAGGCTCTCGTGTCGGTATACAGGCTCTCGTGTATCGGAGTCACCTAGTGCAG”, the binding signal is 3820 fluorescence intensity (a.u.).

Regarding “CCGCCGCCGCCGCCGCCGCCGTCGCCATCGCCGTCGTCTTCGGAGTCACCTAGTGCAG”, the binding signal was 28800 fluorescence intensity (a.u.).

“GTTACAGTGCGCATTGCAGCAAATCTGCAGGCTCTAGTTGCGGAGTCACCTAGTGCAG”: the binding signal is 3280 fluorescence intensity (a.u.).

As for “CGCGGACCGCACGTTCGCTTGGCCTTCGTGGACGCTGTGGCGGAGTCACCTAGTGCAG”, the binding signal was 3370 fluorescence intensity (a.u.).

As for “AATTATATATCCGATACCAAAGCCAAATCAACACATCACACGGAGTCACCTAGTGCAG”, the binding signal is 33200 fluorescence intensity (a.u.).

As to “CTTTGGATCCACGACGCAGCTATGGCCTCCCCGCCCACCACGGAGTCACCTAGTGCAG”, the binding signal was 3410 fluorescence intensity (a.u.).

Take “TACACCAGACAGCATGCATCGATCGGCAGCCACGTCACAGCGGAGTCACCTAGTGCAG”: the binding signal is 20000 fluorescence intensity (a.u.).

As to “ACAATGGAGTTGTGTGTGTGGATAAGTGGCACGTGGGGATCGGAGTCACCTAGTGCAG”, the binding signal was 5530 fluorescence intensity (a.u.).

“CTTGCTGCCTCAAATATTGTTTTATTGATGCCAAAATGTTCGGAGTCACCTAGTGCAG”: the binding signal was 4070 fluorescence intensity (a.u.).

Turning to “GATGACAATTAACACACGTGGGGCTTCCCTATTCGTCTGACGGAGTCACCTAGTGCAG”, the binding signal was 3280 fluorescence intensity (a.u.).

For the sequence “TATTTTGTTGGTTCACTATGACATATCTCACTATCTCTTTCGGAGTCACCTAGTGCAG”, the binding signal was 4000 fluorescence intensity (a.u.).
